Reference: the supplement of paper PMC6411743
± gives the standard deviation of the averaged measurements. Only a part is listed here, and it is no random draw. Most entries show no effect beyond the scatter of the controls.

By UniProt entry, the sequences of proteins in these tests, tags left out. Where a name states a change or a piece, a line headed by the entry shows the natural chain unless it says otherwise.
UniProt Q9Y535: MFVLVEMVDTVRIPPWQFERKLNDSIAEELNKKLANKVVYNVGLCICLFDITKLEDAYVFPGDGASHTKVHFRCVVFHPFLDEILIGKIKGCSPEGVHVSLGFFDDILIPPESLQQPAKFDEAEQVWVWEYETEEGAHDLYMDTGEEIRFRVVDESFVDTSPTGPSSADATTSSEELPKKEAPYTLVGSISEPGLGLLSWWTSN
UniProt Q9Y5B8, whole entry: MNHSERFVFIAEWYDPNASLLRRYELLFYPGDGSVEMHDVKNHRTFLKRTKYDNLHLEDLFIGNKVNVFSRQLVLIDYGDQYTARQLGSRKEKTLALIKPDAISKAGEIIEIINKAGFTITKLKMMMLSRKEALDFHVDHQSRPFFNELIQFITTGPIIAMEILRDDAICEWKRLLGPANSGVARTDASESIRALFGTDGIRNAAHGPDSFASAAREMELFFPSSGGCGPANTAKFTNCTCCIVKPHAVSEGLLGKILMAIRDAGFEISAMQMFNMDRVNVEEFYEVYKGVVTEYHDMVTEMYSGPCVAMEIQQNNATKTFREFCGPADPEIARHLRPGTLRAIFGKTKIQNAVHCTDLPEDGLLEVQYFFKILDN
UniProt Q9Y608: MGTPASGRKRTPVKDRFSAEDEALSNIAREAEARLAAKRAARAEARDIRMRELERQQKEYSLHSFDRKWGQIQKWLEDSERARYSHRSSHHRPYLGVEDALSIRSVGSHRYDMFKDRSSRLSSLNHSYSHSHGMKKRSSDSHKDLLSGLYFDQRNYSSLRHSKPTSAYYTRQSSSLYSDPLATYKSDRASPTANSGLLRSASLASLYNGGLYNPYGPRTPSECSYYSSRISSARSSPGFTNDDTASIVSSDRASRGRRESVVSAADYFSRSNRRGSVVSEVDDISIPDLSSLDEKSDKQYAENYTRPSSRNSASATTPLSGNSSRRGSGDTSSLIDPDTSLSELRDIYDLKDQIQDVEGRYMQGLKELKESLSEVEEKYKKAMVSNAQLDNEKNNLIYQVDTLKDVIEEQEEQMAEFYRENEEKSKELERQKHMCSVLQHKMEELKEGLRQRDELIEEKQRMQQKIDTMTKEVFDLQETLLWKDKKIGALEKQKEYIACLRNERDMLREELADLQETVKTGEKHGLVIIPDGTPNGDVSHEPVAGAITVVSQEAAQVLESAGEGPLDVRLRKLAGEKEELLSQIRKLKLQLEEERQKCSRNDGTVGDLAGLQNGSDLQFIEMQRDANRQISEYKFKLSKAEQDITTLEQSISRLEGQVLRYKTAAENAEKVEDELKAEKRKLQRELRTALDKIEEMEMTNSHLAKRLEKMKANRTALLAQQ
UniProt Q9Y6D6: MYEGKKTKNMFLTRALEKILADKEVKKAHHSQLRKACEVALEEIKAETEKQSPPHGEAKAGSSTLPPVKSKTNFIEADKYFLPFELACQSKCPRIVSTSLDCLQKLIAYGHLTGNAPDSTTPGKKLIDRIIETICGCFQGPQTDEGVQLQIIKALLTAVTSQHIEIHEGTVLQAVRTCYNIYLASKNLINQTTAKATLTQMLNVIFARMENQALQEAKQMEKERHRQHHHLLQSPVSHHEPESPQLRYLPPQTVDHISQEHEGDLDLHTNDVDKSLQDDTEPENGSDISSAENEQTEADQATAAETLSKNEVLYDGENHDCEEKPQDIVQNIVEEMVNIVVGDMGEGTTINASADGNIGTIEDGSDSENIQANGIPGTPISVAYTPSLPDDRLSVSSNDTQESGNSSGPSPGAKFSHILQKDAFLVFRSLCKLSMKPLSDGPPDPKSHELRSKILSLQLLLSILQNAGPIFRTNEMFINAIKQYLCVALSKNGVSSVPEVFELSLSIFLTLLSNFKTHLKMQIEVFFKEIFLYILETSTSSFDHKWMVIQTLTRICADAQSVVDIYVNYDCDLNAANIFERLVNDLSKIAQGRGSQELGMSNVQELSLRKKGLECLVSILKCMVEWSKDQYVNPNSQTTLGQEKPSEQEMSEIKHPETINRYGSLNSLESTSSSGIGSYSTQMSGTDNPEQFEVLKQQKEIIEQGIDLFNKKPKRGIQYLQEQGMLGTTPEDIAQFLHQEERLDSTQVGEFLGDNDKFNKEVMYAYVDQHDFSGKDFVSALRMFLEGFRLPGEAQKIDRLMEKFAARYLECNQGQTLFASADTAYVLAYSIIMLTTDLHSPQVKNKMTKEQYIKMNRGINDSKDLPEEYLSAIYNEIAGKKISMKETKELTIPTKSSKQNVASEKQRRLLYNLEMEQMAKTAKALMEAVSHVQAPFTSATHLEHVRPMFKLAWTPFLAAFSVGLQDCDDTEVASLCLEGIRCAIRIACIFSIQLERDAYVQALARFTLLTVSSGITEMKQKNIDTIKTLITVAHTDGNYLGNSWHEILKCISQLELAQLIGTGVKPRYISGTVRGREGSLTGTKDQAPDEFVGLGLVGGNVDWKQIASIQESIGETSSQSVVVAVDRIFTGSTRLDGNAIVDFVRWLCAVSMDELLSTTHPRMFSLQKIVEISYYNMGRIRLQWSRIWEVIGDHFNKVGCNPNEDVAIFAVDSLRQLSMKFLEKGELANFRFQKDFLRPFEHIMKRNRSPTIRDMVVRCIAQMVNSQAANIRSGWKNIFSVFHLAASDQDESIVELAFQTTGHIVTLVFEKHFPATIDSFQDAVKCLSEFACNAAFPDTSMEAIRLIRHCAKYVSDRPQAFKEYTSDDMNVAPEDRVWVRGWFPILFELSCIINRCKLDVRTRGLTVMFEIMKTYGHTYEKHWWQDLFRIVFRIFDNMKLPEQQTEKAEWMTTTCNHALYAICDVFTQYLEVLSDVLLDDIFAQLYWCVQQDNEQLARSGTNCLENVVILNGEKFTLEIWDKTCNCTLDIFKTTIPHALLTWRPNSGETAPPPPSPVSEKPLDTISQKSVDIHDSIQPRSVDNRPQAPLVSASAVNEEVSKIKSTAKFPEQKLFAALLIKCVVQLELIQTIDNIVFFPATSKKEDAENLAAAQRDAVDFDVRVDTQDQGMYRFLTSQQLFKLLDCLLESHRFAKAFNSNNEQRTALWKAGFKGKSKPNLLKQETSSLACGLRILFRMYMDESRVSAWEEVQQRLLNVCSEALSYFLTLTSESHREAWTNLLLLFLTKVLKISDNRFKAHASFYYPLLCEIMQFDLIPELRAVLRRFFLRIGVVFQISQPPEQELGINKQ
UniProt Q9Y5R8, whole entry: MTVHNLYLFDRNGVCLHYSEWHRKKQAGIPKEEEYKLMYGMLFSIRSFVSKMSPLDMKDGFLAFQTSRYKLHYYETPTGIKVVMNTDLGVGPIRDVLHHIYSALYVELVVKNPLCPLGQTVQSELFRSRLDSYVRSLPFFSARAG
UniProt Q9Y421: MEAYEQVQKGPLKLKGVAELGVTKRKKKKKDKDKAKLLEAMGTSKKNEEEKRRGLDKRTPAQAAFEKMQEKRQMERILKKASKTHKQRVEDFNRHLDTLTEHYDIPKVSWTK
UniProt Q9Y520: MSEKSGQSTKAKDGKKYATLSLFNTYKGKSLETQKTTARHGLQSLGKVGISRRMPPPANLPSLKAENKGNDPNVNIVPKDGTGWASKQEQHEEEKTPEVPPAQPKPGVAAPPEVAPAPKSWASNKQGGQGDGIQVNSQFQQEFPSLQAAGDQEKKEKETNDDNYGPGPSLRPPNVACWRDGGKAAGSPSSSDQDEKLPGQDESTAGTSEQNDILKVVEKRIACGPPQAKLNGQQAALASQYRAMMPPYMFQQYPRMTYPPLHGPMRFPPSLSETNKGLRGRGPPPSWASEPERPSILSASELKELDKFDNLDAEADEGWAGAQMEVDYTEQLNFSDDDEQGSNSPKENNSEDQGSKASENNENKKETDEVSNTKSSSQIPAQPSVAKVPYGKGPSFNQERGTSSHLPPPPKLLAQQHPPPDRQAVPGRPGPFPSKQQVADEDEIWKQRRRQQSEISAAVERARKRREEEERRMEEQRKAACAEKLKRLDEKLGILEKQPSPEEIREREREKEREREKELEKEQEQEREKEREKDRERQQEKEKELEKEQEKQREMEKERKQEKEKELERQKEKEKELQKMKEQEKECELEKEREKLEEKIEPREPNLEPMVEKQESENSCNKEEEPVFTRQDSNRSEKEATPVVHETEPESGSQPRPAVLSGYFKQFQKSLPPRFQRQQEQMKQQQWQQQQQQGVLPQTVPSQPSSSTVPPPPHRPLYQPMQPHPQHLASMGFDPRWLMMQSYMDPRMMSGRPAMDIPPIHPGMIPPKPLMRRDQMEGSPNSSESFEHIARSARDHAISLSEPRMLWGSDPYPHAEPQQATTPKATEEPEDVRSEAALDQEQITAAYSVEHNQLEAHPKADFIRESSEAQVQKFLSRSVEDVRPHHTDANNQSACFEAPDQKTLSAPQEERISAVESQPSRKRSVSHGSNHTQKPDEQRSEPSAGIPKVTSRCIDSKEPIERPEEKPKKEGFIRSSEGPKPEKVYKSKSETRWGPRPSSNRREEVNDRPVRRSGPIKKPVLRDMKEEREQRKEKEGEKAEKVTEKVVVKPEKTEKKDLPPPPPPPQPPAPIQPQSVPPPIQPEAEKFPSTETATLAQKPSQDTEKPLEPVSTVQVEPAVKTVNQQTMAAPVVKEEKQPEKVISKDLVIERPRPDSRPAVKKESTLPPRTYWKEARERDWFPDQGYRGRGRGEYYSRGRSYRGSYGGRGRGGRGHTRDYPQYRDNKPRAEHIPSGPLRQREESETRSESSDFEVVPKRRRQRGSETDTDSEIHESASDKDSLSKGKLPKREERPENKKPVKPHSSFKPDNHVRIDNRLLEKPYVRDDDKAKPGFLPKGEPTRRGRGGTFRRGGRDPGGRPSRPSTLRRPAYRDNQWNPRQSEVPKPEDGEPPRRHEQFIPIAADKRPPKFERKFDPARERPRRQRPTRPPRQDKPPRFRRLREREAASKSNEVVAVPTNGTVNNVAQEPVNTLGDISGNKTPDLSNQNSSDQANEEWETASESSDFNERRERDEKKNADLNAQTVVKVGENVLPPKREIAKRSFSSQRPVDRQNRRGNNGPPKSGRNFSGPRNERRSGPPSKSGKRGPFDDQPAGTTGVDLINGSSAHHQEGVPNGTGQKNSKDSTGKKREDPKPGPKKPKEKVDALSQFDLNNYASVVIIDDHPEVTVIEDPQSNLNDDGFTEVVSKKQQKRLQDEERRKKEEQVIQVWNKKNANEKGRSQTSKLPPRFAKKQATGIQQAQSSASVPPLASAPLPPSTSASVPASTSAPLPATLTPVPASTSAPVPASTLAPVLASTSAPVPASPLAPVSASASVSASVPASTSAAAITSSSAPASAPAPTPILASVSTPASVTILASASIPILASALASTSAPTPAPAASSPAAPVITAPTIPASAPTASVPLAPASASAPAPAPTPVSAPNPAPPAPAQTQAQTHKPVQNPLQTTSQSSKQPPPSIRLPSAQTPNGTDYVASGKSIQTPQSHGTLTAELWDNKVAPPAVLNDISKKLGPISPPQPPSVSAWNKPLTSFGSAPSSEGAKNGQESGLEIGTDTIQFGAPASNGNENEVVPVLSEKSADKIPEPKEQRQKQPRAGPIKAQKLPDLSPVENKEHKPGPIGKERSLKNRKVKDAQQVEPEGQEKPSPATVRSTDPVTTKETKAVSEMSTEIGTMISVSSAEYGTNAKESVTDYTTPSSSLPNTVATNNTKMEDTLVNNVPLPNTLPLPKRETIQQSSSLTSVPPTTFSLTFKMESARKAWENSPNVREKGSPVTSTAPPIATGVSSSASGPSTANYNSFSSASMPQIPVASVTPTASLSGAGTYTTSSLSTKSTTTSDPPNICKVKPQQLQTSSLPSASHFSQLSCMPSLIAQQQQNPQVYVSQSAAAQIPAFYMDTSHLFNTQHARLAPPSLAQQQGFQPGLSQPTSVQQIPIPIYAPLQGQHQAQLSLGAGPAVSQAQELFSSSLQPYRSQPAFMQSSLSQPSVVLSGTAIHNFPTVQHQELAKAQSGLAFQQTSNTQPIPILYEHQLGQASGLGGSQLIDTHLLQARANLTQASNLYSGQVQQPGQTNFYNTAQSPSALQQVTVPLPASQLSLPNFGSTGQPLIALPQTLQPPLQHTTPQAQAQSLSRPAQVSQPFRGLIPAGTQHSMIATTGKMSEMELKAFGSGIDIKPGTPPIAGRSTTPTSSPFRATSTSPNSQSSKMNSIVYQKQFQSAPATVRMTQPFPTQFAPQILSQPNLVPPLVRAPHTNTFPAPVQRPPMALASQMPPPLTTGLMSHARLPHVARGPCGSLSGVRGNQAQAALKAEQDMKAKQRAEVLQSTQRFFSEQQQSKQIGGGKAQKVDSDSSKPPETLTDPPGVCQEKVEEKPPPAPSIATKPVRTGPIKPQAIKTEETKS
UniProt Q9Y696: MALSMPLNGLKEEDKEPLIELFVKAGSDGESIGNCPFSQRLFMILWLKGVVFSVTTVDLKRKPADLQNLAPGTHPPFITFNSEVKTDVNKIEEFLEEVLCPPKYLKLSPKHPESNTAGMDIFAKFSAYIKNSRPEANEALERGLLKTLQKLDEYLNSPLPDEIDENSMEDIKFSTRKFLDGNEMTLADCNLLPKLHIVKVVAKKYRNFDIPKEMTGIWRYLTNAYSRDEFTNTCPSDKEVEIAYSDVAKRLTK

Compound: Nc1ncnc2c1ncn2[C@@H]1O[C@H](COP(=O)(O)OP(=O)(O)NP(=O)(O)O)[C@@H](O)[C@H]1O [adenylyl imidodiphosphate]
Assay: NP40-soluble protein abundance relative to vehicle (solubility fold change) (ratio); higher = more soluble protein in presence of AMP-PNP
Procedure, shortened: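 Across three independent experiments, values are fold changes against the detergent-processed vehicle for each replicate, based on vsn-normalised intensities. The samples were Jurkat crude lysate treated with eight concentrations (0.1 to 10 mM) for 10 min at room temperature and then 3 min at 37 °C. Lysate was solubilised with 0.8% NP40 and benzonase, ultracentrifuged, and the supernatant analysed by TMT-labelled LC-MS/MS.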

UniProt Q9Y4P8 and related entries was tested, and the NP40-soluble protein abundance (concentration: 0.1mM) was 1.03 ± 0.04 and the NP40-soluble protein abundance (concentration: 0.5mM) was 1.02 ± 0.066.

In the case of ARIH1 (UniProt Q9Y4X5), the NP40-soluble protein abundance (concentration: 0.1mM) is reported as 0.973 ± 0.029 and the NP40-soluble protein abundance (concentration: 0.5mM) is reported as 0.973 ± 0.036.

Target UniProt Q9Y535 and related entries has an NP40-soluble protein abundance (concentration: 0.1mM) of 1 ± 0.045 and an NP40-soluble protein abundance (concentration: 0.5mM) of 1.01 ± 0.014.

Target NME7 (UniProt Q9Y5B8) has an NP40-soluble protein abundance (concentration: 0.1mM) of 0.993 ± 0.054 and an NP40-soluble protein abundance (concentration: 0.5mM) of 0.97 ± 0.056.

In the case of UniProt Q9Y608 and related entries, the NP40-soluble protein abundance (concentration: 0.1mM) is reported as 1.06 ± 0.05 and the NP40-soluble protein abundance (concentration: 0.5mM) is reported as 1.09 ± 0.12.

In the case of UniProt Q9Y3R5 and related entries, the NP40-soluble protein abundance (concentration: 0.1mM) is reported as 0.984 ± 0.028 and the NP40-soluble protein abundance (concentration: 0.5mM) is reported as 0.998 ± 0.024.

ARFGEF1 (UniProt Q9Y6D6) showed an NP40-soluble protein abundance (concentration: 0.1mM) of 1 ± 0.041 and an NP40-soluble protein abundance (concentration: 0.5mM) of 0.979 ± 0.046.

With UniProt Q9Y639 and related entries the NP40-soluble protein abundance (concentration: 0.1mM) was 1.02 ± 0.067 and the NP40-soluble protein abundance (concentration: 0.5mM) was 1.02 ± 0.02.

Target UniProt V9HW75 has an NP40-soluble protein abundance (concentration: 0.1mM) of 1.02 ± 0.064 and an NP40-soluble protein abundance (concentration: 0.5mM) of 1.15 ± 0.13.

In the case of UniProt Q9Y4E6 and related entries, the NP40-soluble protein abundance (concentration: 0.1mM) is reported as 0.966 ± 0.049 and the NP40-soluble protein abundance (concentration: 0.5mM) is reported as 0.923 ± 0.044.

SNX8 (UniProt Q9Y5X2) was tested, and the NP40-soluble protein abundance (concentration: 0.1mM) was 1.02 ± 0.018 and the NP40-soluble protein abundance (concentration: 0.5mM) was 0.995 ± 0.051.

TRAPPC1 (UniProt Q9Y5R8) gave an NP40-soluble protein abundance (concentration: 0.1mM) of 1.05 ± 0.028 and an NP40-soluble protein abundance (concentration: 0.5mM) of 1.01 ± 0.065.

UniProt Q9Y5J7 and related entries gave an NP40-soluble protein abundance (concentration: 0.1mM) of 0.98 ± 0.068 and an NP40-soluble protein abundance (concentration: 0.5mM) of 1.01 ± 0.042.

Work on UniProt Q9Y448 and related entries yielded an NP40-soluble protein abundance (concentration: 0.1mM) of 0.972 ± 0.027 and an NP40-soluble protein abundance (concentration: 0.5mM) of 1 ± 0.015.

With UniProt Q9Y6Q9 and related entries the NP40-soluble protein abundance (concentration: 0.1mM) was 0.962 ± 0.024 and the NP40-soluble protein abundance (concentration: 0.5mM) was 0.991 ± 0.039.

With LRRC42 (UniProt Q9Y546) the NP40-soluble protein abundance (concentration: 0.1mM) was 1.02 ± 0.042 and the NP40-soluble protein abundance (concentration: 0.5mM) was 1.02 ± 0.014.

Target UniProt Q9Y3U8 has an NP40-soluble protein abundance (concentration: 0.1mM) of 1.032 ± 0.0093 and an NP40-soluble protein abundance (concentration: 0.5mM) of 1.02 ± 0.032.

Work on UniProt Q9Y421 and related entries yielded an NP40-soluble protein abundance (concentration: 0.1mM) of 1.007 ± 0.0026 and an NP40-soluble protein abundance (concentration: 0.5mM) of 1.01 ± 0.053.

For UniProt Q9Y520 and related entries, the NP40-soluble protein abundance (concentration: 0.1mM) was 1.01 ± 0.013 and the NP40-soluble protein abundance (concentration: 0.5mM) was 1.04 ± 0.038.

Target CLIC4 (UniProt Q9Y696) has an NP40-soluble protein abundance (concentration: 0.1mM) of 1 ± 0.021 and an NP40-soluble protein abundance (concentration: 0.5mM) of 1.03 ± 0.032.

Work on HCFC2 (UniProt Q9Y5Z7) yielded an NP40-soluble protein abundance (concentration: 0.1mM) of 0.967 ± 0.05 and an NP40-soluble protein abundance (concentration: 0.5mM) of 0.976 ± 0.038.
